The subject of this assay is BDF1 mice, B16 melanoma s.c., survival/tumor T/C. Nature of the assay: NCI In Vivo Anticancer Drug Screen. Data for tumor model B16 Melanoma (subcutaneous) in B6D2F1 (BDF1) mice. The method, then: The antitumor activity of compounds was measured in mice bearing transplantable tumors. Survival or tumor size were measured and the results are expressed as the measurement made in the treated group (T) divided by the measurement made in the vehicle treated control group (C). The tumor model used in this assay is B16 Melanoma (subcutaneous) in B6D2F1 (BDF1) mice

[1] abbreviates: T/C endpoint: median survival time, dose: 100.0 mg/kg/injection, schedule: Q01DX009 (ip), vehicle: saline, higher T/C = longer survival.
Where [2] appears, read: T/C endpoint: median survival time, dose: 200.0 mg/kg/injection, schedule: Q01DX009 (ip), vehicle: saline, higher T/C = longer survival.
The mark [3] stands for this setting: T/C endpoint: median survival time, dose: 400.0 mg/kg/injection, schedule: Q01DX009 (ip), vehicle: saline, higher T/C = longer survival.
Setting [4] is: T/C endpoint: median survival time, dose: 25.0 mg/kg/injection, schedule: Q01DX009 (ip), vehicle: Klucel (hydroxypropylcellulose) (HPC), higher T/C = longer survival.
[5] abbreviates: T/C endpoint: median survival time, dose: 50.0 mg/kg/injection, schedule: Q01DX009 (ip), vehicle: saline, higher T/C = longer survival.
Setting [6] is: T/C endpoint: median survival time, dose: 200.0 mg/kg/injection, schedule: Q01DX009 (ip), vehicle: Klucel (hydroxypropylcellulose) (HPC), higher T/C = longer survival.

The list does not hold the whole screen: it gathers tests that were run many times, whatever their T/C, doses with no T/C, and many T/C values between a quarter and a half above the control. Further doses and runs are listed elsewhere. T/C: endpoint of the treated group in % of that of the vehicle group. Schedules are NCI's codes, read here as Q, the interval in days (D) or hours (H), X, the number of doses. Some entries give survivors of the animals treated and no T/C: the source files T/C as zero there, which appears to mark a toxic dose or a test without result, not a measured value. Some doses without a T/C left all or most animals alive at the check, yet need not have been tolerated: the source hardly ever lists a survival T/C far under the control, and the zero likely stands for such cases as well. Counts of survivors are from the toxicity check (mostly the fifth day) where no day follows; animals may have died later. Some entries were tested several times; their values stand side by side, smallest first. For survival time, this PubChem deposit counts one and a half times the control or more as active, and values a quarter to a half above the control carry no call in these data; other NCI protocols may use other cut-offs. Additions like (4×) count equal records among those shown. Some T/C values carry the count of animals alive at the toxicity check (mostly the fifth day); without a count, all were alive then.

As for `CO[C@@]12[C@H](COC(N)=O)C3=C(C(=O)C(C)=C(N)C3=O)N1C[C@@H]1N[C@@H]12`, the T/C (T/C endpoint: median survival time, dose: 1.0 mg/kg/injection, schedule: Q01DX009 (ip), vehicle: Klucel (hydroxypropylcellulose) (HPC), higher T/C = longer survival) was 136 % of control.

As for `O=NN(CCCl)C(=O)NCCCl`, the T/C reads like this: (T/C endpoint: median survival time, dose: 3.0 mg/kg/injection, schedule: Q02DX009 (ip), vehicle: saline + alcohol, higher T/C = longer survival) 134 % of control; (T/C endpoint: median survival time, dose: 5.18 mg/kg/injection, schedule: Q01DX007 (ip), vehicle: Klucel (hydroxypropylcellulose) (HPC), higher T/C = longer survival) 126 % of control; (T/C endpoint: median survival time, dose: 6.0 mg/kg/injection, schedule: Q02DX009 (ip), vehicle: saline + alcohol, higher T/C = longer survival) 138 % of control; (T/C endpoint: median survival time, dose: 8.64 mg/kg/injection, schedule: Q01DX007 (ip), vehicle: Klucel (hydroxypropylcellulose) (HPC), higher T/C = longer survival) 135 % of control [9 of 10 alive on day 55]; (T/C endpoint: median survival time, dose: 12.0 mg/kg/injection, schedule: Q02DX009 (ip), vehicle: saline + alcohol, higher T/C = longer survival) 142 % of control. In addition, the survivor count is 2 of 10 on day 55 (T/C endpoint: median survival time, dose: 24.0 mg/kg/injection, schedule: Q01DX007 (ip), vehicle: Klucel (hydroxypropylcellulose) (HPC), higher T/C = longer survival) and 10 of 10 (T/C endpoint: median survival time, dose: 24.0 mg/kg/injection, schedule: Q02DX009 (ip), vehicle: saline + alcohol, higher T/C = longer survival).

As to `COc1cccc2c1C(=O)c1c(O)c3c(c(O)c1C2=O)C[C@@](O)(C(=O)COC(=O)Cc1ccccc1)C[C@@H]3OC1CC(N)C(O)C(C)O1` (stereo not given in full), the survivor count reads like this: (T/C endpoint: median survival time, dose: 4.0 mg/kg/injection, schedule: Q01DX009 (ip), vehicle: saline with Tween-80, higher T/C = longer survival) 10 of 10; (T/C endpoint: median survival time, dose: 8.0 mg/kg/injection, schedule: Q01DX009 (ip), vehicle: saline with Tween-80, higher T/C = longer survival) 10 of 10; (T/C endpoint: median survival time, dose: 16.0 mg/kg/injection, schedule: Q01DX009 (ip), vehicle: saline with Tween-80, higher T/C = longer survival) 6 of 10.

With `Nc1n[nH]c(N)n1`, the T/C was 90, 98, 100, 101, 111, 115 % of control under setting [1]; 138 % of control (T/C endpoint: median survival time, dose: 200.0 mg/kg/injection, schedule: Q01DX009 (ip), vehicle: saline with Tween-80, higher T/C = longer survival); 90, 106, 108, 109, 114, 115 % of control under setting [2]; 96, 110, 114, 118, 127, 173 % of control under setting [3]; 101, 105 (2×), 114, 119, 123 % of control (T/C endpoint: median survival time, dose: 800.0 mg/kg/injection, schedule: Q01DX009 (ip), vehicle: saline, higher T/C = longer survival); 127 % of control (T/C endpoint: median tumor weight (est.), dose: 200.0 mg/kg/injection, schedule: Q01DX009 (ip), vehicle: saline with Tween-80, evaluated on day 15, higher T/C = larger tumour). The T/C (T/C endpoint: median tumor weight (est.), dose: 400.0 mg/kg/injection, schedule: Q01DX009 (ip), vehicle: saline with Tween-80, evaluated on day 15, higher T/C = larger tumour) was 128 % of control.

For the compound `CC1(C)N=C(N)N=C(N)N1c1ccc(CCCCc2ccc(Cl)c(S(=O)(=O)F)c2)c(Cl)c1`, where the note is “T/C endpoint: median survival time, dose: 40.0 mg/kg/injection, schedule: Q01DX009 (ip), vehicle: saline, higher T/C = longer survival”, the survivor count is 1 of 6.

`O=C(NP(=O)(N1CC1)N1CC1)c1cc(I)ccc1I`: the survivor count (T/C endpoint: median survival time, dose: 1.0 mg/kg/injection, schedule: Q01DX001 (oral), vehicle: saline with Tween-80, higher T/C = longer survival) is 10 of 10; the survivor count (T/C endpoint: median survival time, dose: 2.0 mg/kg/injection, schedule: Q01DX001 (oral), vehicle: saline with Tween-80, higher T/C = longer survival) is on record as 10 of 10; the survivor count (T/C endpoint: median survival time, dose: 2.0 mg/kg/injection, schedule: Q02DX009 (ip), vehicle: saline with Tween-80, higher T/C = longer survival) was 9 of 10; the survivor count (T/C endpoint: median survival time, dose: 64.0 mg/kg/injection, schedule: Q02DX009 (ip), vehicle: saline with Tween-80, higher T/C = longer survival) is on record as 10 of 10; the survivor count (T/C endpoint: median survival time, dose: 64.0 mg/kg/injection, schedule: Q02DX009 (ip), vehicle: saline, higher T/C = longer survival) was 10 of 10; the survivor count (T/C endpoint: median survival time, dose: 128.0 mg/kg/injection, schedule: Q01DX001 (oral), vehicle: saline with Tween-80, higher T/C = longer survival) is listed as 10 of 10. The survivor count was 10 of 10 (T/C endpoint: median survival time, dose: 128.0 mg/kg/injection, schedule: Q02DX009 (ip), vehicle: saline with Tween-80, higher T/C = longer survival); 10 of 10 (T/C endpoint: median survival time, dose: 128.0 mg/kg/injection, schedule: Q02DX009 (ip), vehicle: saline, higher T/C = longer survival); 9 of 10 (T/C endpoint: median survival time, dose: 256.0 mg/kg/injection, schedule: Q02DX009 (ip), vehicle: saline with Tween-80, higher T/C = longer survival); 8 of 10 (T/C endpoint: median survival time, dose: 256.0 mg/kg/injection, schedule: Q02DX009 (ip), vehicle: saline, higher T/C = longer survival); 9 of 10 (T/C endpoint: median survival time, dose: 512.0 mg/kg/injection, schedule: Q02DX009 (ip), vehicle: saline with Tween-80, higher T/C = longer survival); 9 of 10 (T/C endpoint: median survival time, dose: 512.0 mg/kg/injection, schedule: Q02DX009 (ip), vehicle: saline, higher T/C = longer survival). Moreover, the T/C (T/C endpoint: median survival time, dose: 2.0 mg/kg/injection, schedule: Q02DX009 (ip), vehicle: saline, higher T/C = longer survival) was 147 % of control; the T/C (T/C endpoint: median survival time, dose: 32.0 mg/kg/injection, schedule: Q02DX009 (ip), vehicle: saline with Tween-80, higher T/C = longer survival) was 135 % of control; the T/C (T/C endpoint: median survival time, dose: 256.0 mg/kg/injection, schedule: Q01DX001 (oral), vehicle: saline with Tween-80, higher T/C = longer survival) was 126 % of control [9 of 10 alive].

Turning to `CCO/C=C1\SC(=S)N(c2ccc(C(=O)O)cc2)C1=O`, the T/C (T/C endpoint: median survival time, dose: 12.5 mg/kg/injection, schedule: Q01DX009 (ip), vehicle: Klucel (hydroxypropylcellulose) (HPC), higher T/C = longer survival) was 125 % of control. In addition, under setting [4], the T/C was 146 % of control and the survivor count was 10 of 10.

As for `OC(CBr)C(O)C(O)C(O)CBr` (stereo not given), the T/C reads like this: (T/C endpoint: median survival time, dose: 75.0 mg/kg/injection, schedule: Q01DX009 (ip), vehicle: Klucel (hydroxypropylcellulose) (HPC), higher T/C = longer survival) 136 % of control [9 of 10 alive]; (T/C endpoint: median survival time, dose: 80.0 mg/kg/injection, schedule: Q01DX009 (ip), vehicle: Klucel (hydroxypropylcellulose) (HPC), higher T/C = longer survival) 130 % of control. The survivor count is 10 of 10 (T/C endpoint: median survival time, dose: 160.0 mg/kg/injection, schedule: Q01DX009 (ip), vehicle: Klucel (hydroxypropylcellulose) (HPC), higher T/C = longer survival); 9 of 10 (T/C endpoint: median survival time, dose: 300.0 mg/kg/injection, schedule: Q01DX009 (ip), vehicle: Klucel (hydroxypropylcellulose) (HPC), higher T/C = longer survival); 10 of 10 (T/C endpoint: median survival time, dose: 320.0 mg/kg/injection, schedule: Q01DX009 (ip), vehicle: Klucel (hydroxypropylcellulose) (HPC), higher T/C = longer survival); 10 of 10 (T/C endpoint: median survival time, dose: 480.0 mg/kg/injection, schedule: Q01DX009 (ip), vehicle: Klucel (hydroxypropylcellulose) (HPC), higher T/C = longer survival); 9 of 10 (T/C endpoint: median survival time, dose: 500.0 mg/kg/injection, schedule: Q01DX009 (ip), vehicle: Klucel (hydroxypropylcellulose) (HPC), higher T/C = longer survival); 10 of 10 (T/C endpoint: median survival time, dose: 600.0 mg/kg/injection, schedule: Q01DX009 (ip), vehicle: Klucel (hydroxypropylcellulose) (HPC), higher T/C = longer survival). Moreover, the survivor count (T/C endpoint: median survival time, dose: 1000.0 mg/kg/injection, schedule: Q01DX009 (ip), vehicle: Klucel (hydroxypropylcellulose) (HPC), higher T/C = longer survival) is reported as 7 of 10.

For the compound `C[C@]12C=CC(=O)C=C1CC[C@@H]1[C@@H]2C(=O)C[C@@]2(C)[C@H]1CC[C@]2(O)C(=O)CO`, the T/C runs as follows: (T/C endpoint: median survival time, dose: 50.0 mg/kg/injection, schedule: Q01DX009 (ip), vehicle: saline with Tween-80, higher T/C = longer survival) 148 % of control; under setting [5], 125 % of control; (T/C endpoint: median survival time, dose: 100.0 mg/kg/injection, schedule: Q01DX009 (ip), vehicle: Klucel (hydroxypropylcellulose) (HPC), higher T/C = longer survival) 129 and 139 % of control; (T/C endpoint: median survival time, dose: 100.0 mg/kg/injection, schedule: Q01DX009 (ip), vehicle: saline with Tween-80, higher T/C = longer survival) 146 % of control; under setting [1], 129 % of control; under setting [6], 149 % of control. Also, the survivor count runs as follows: under setting [5], 6 of 6; under setting [1], 6 of 6; under setting [6], 6 of 6; under setting [2], 4 of 6 and 6 of 6; (T/C endpoint: median survival time, dose: 400.0 mg/kg/injection, schedule: Q01DX009 (ip), vehicle: Klucel (hydroxypropylcellulose) (HPC), higher T/C = longer survival) 5 of 6 and 6 of 6; (T/C endpoint: median survival time, dose: 400.0 mg/kg/injection, schedule: Q01DX009 (ip), vehicle: saline with Tween-80, higher T/C = longer survival) 6 of 6. In addition, the survivor count by setting is: under setting [3], 6 of 6; (T/C endpoint: median tumor weight (est.), dose: 400.0 mg/kg/injection, schedule: Q01DX009 (ip), vehicle: Klucel (hydroxypropylcellulose) (HPC), higher T/C = larger tumour) 3 of 6.

These data come from PubChem BioAssay AID194 (DTP/NCI, 2004).
